Results are given in words; binding and its absence hold for the method and conditions named. In cells and extracts the contact can be indirect. Some results given as binding are weak or reduced against the parent protein; the word gives no strength. For part of these data: Sequences can lack the tags named with a protein.
Columns and labels:
[1] = molecular target: GST-Myo10 Myth-FERM domain (aa1486-2058) (UniProt Q9HD67); test: pull-down
[2] = molecular target: T1, GST-ARHGAP39 aa1-134 (Wdom) (UniProt Q9C0H5); test: pull-down
T1 sequence: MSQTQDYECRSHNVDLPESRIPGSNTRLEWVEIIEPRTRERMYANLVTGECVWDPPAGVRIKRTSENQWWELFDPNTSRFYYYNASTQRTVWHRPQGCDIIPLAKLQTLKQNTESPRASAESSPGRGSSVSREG

By UniProt entry, the sequences of proteins in these tests, tags left out. Residues count along the entry.
UniProt Q9HD67, 1486-2058: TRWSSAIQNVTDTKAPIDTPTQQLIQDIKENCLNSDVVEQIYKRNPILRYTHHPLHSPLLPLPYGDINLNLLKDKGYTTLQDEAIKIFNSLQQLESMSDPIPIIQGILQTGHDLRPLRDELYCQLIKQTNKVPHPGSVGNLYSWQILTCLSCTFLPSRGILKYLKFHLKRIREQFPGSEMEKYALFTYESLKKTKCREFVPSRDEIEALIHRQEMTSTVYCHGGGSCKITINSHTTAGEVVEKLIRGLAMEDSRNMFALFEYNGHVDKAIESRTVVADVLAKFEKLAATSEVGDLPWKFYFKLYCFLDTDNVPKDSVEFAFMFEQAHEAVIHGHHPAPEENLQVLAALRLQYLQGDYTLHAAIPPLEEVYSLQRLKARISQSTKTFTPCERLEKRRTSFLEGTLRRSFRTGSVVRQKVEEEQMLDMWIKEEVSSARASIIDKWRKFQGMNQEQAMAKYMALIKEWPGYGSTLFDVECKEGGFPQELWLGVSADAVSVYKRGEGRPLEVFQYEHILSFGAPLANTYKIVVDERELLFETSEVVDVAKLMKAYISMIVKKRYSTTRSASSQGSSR
UniProt Q9Y6W5, whole entry: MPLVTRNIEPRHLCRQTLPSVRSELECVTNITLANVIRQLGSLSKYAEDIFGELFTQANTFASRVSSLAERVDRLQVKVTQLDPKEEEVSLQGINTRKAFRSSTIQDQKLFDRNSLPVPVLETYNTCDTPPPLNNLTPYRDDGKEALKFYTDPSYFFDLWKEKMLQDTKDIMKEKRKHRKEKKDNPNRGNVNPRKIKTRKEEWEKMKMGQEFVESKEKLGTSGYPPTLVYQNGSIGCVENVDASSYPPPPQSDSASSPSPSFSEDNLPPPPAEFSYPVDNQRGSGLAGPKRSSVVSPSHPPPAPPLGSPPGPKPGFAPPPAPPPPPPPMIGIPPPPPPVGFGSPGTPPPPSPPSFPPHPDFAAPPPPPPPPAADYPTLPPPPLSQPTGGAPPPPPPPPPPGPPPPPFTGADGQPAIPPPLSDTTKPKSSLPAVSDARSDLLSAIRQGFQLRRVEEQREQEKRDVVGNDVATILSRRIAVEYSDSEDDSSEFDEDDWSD
UniProt Q9Y6W5, 300-419: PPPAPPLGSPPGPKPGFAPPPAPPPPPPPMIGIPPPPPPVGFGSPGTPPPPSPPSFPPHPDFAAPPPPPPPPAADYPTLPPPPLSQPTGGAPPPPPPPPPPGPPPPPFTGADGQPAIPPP
UniProt Q9NSV4, 1-1057: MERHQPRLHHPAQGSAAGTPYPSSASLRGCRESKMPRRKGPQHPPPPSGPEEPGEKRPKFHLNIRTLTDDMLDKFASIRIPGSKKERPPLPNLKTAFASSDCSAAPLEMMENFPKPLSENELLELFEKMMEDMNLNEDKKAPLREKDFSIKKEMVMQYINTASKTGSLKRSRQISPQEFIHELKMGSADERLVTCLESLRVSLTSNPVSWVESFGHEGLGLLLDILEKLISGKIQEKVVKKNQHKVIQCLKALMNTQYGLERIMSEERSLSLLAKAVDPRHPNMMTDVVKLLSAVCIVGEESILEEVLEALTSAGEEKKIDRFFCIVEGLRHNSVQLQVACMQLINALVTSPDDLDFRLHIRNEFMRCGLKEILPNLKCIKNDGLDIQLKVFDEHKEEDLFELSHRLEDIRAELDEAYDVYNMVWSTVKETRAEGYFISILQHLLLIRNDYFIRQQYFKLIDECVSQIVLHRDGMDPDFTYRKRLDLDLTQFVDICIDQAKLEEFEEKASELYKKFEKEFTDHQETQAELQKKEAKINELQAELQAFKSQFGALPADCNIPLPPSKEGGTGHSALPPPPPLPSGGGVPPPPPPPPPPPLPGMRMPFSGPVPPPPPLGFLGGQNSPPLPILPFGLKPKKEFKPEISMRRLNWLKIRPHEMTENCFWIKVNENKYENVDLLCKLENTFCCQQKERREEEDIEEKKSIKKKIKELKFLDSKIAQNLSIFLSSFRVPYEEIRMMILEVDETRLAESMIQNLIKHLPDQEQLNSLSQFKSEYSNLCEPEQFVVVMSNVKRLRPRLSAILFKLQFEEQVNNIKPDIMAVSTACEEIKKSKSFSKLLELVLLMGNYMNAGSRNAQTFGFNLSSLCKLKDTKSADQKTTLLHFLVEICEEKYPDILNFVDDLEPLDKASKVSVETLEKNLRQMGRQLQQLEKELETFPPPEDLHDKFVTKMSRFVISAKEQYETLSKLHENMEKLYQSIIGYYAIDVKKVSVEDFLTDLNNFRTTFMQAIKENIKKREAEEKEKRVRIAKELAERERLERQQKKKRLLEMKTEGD
UniProt Q9NSV4, 506-696: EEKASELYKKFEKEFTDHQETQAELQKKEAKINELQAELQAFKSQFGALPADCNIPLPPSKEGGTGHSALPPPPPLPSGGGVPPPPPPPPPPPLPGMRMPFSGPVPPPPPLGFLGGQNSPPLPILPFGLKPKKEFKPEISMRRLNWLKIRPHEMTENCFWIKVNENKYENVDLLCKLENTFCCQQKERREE

Substance | binding [1] | binding [2]
HA-ARHGAP39-3YA (Y313, 325, 785A) (from UniProt Q9C0H5 1-1083) | no binding | 
HA-WAVE2 full-length (from UniProt Q9Y6W5 1-498) |  | binds
HA-WAVE2 poly-proline region (PP, aa300-419) (from UniProt Q9Y6W5 300-419) (domain or fragment) |  | binds
HA-mDia2 FH1 domain (aa506-696) (from UniProt Q9NSV4 506-696) (domain or fragment) |  | binds
HA-mDia2 deltaDAD (aa1-1057) (from UniProt Q9NSV4 1-1057) (domain or fragment) |  | binds
endogenous WAVE (from UniProt Q9Y6W5 1-498) |  | binds

From paper doi:10.1101/2021.05.13.443687
